# Assay results reported in the supplement of paper PMC8256030.
# Where “and” joins values, the source holds several entries; their conditions need not be identical. Equal values may be shown once. The list shows a part of the results. Single values are uncertain here, since repeats match poorly.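 HEK293T cells were given each compound shortly before transfection with a reporter in which red mCherry is followed by the SARS-CoV-2 frameshift element and then GFP in the −1 frame, so GFP appears only after frameshifting.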
# Key:
# [1] = test system: SARS-CoV-2 -1 PRF reporter mCherry-FSE-GFP(-1); assay: mCherry (red) intensity as percent of control; higher = higher upstream reporter expression; conditions: 10 µM; 24 h; HEK293T
# [2] = test system: SARS-CoV-2 -1 PRF reporter mCherry-FSE-GFP(-1); assay: percent effect, decrease of GFP/mCherry ratio (-1 PRF reporter) relative to controls; higher = stronger frameshift inhibition; conditions: 10 µM; 24 h; HEK293T
smiles,measurement,setting,value
C[C@@H]1CCO[C@H]2Cn3cc(C(=O)NCc4ccc(F)cc4F)c(=O)c(O)c3C(=O)N12 [Dolutegravir],mCherry,[1],93.2%
same,percent effect,[2],-7.01%
CC(C)C[C@H](NC(=O)[C@@H](Cc1c[nH]c2ccccc12)NC(=O)[C@H](Cc1ccc(O)cc1)NC(=O)[C@H](CO)NC(=O)[C@H](Cc1c[nH]c2ccccc12)NC(=O)[C@H](Cc1c[nH]cn1)NC(=O)[C@@H]1CCC(=O)N1)C(=O)N[C@@H](CCCNC(=N)N)C(=O)N1CCC[C@H]1C(=O)NCC(N)=O [Triptorelin],mCherry,[1],65.4%
same,percent effect,[2],-6.73%
CCC(C)(Oc1ccc(C2(c3ccc(OC(C)(CC)C(=O)O)cc3)CCCCC2)cc1)C(=O)O (stereo not given) [Clinofibrate],mCherry,[1],87.7%
same,percent effect,[2],-2.91%
CC1(C)S[C@@H]2[C@H](NC(=O)[C@H](N)c3ccc(O)cc3)C(=O)N2[C@H]1C(=O)O [Amoxicillin],mCherry,[1],58.4%
same,percent effect,[2],-4.4%
N=c1nc(N2CCCCC2)cc(N)n1O [minoxidil],mCherry,[1],80.4% and 81.7%
same,percent effect,[2],-4.72% and 2.8%
CCCCC(CC)COC(=O)c1ccccc1O (stereo not given),mCherry,[1],106%
same,percent effect,[2],-5.27%
Cc1cc(C)nc(NS(=O)(=O)c2ccc(N)cc2)n1 [sulfadimidine],mCherry,[1],107%
same,percent effect,[2],-5.83%
CO[C@H]1C[C@@H]2CC[C@@H](C)[C@@](O)(O2)C(=O)C(=O)N2CCCC[C@H]2C(=O)O[C@H]([C@H](C)C[C@@H]2CC[C@@H](O)[C@H](OC)C2)CC(=O)[C@H](C)/C=C(\C)[C@@H](O)[C@@H](OC)C(=O)[C@H](C)C[C@H](C)/C=C/C=C/C=C/1C [Sirolimus],mCherry,[1],102%
same,percent effect,[2],1.99%
O=C(O)C[C@H](O)C[C@H](O)/C=C/c1c(C2CC2)nc2ccccc2c1-c1ccc(F)cc1,mCherry,[1],152%
same,percent effect,[2],-0.39%
O=C(Nc1ccc(Cl)cc1)Nc1ccc(Cl)c(Cl)c1 [triclocarban],mCherry,[1],35.1%
same,percent effect,[2],-13.6%
Nc1c(-c2cccc(C(F)(F)F)c2)nsc1C(=O)O [amflutizole],mCherry,[1],119%
same,percent effect,[2],-2.47%
COC(=O)Nc1nc2cc([S+]([O-])c3ccccc3)ccc2[nH]1 (stereo not given) [Oxfendazole],mCherry,[1],82.5%
same,percent effect,[2],-2.93%
Cc1cccc(OCC(O)CNC(C)C)c1 (stereo not given) [toliprolol],mCherry,[1],112%
same,percent effect,[2],-14.1%
Nc1nnnn1-c1ccccc1 [fenamole],mCherry,[1],64.7%
same,percent effect,[2],-10.7%
Cc1cccc(C(=O)O)c1O,mCherry,[1],90.7%
same,percent effect,[2],0.887%
CC(=O)N(C)C1(c2ccccc2)CCN(CCC[C@]2(c3ccc(Cl)c(Cl)c3)CCCN(C(=O)c3ccccc3)C2)CC1 [osanetant],mCherry,[1],32.1%
same,percent effect,[2],-9.59%
CCCCNc1cc(C(=O)O)cc(S(N)(=O)=O)c1Oc1ccccc1 [bumetanide],mCherry,[1],101% and 98.6%
same,percent effect,[2],-1.3% and -7.61%
O=S1(=O)c2cccc3cccc(c23)N1CCCN1CCN(c2ccc(F)cc2)CC1 [fananserin],mCherry,[1],98.7%
same,percent effect,[2],-2.79%
[O-][n+]1cccc(CO)c1 [mepiroxol],mCherry,[1],106%
same,percent effect,[2],-2.66%
COc1cc(NCCCC(C)N)c2ncccc2c1 (stereo not given) [quinocide],mCherry,[1],85.3%
same,percent effect,[2],-2.27%
CCCN(CCc1cccs1)[C@H]1CCc2c(O)cccc2C1 [Neupro],mCherry,[1],109%
same,percent effect,[2],-6.09%
Cc1ccc(O)c2ncccc12 [tiliquinol],mCherry,[1],107%
same,percent effect,[2],-2.27%
CC(=O)N[C@H]1[C@H](O[C@H]2[C@H](O)[C@@H](NC(C)=O)C(O)O[C@@H]2CO)O[C@H](CO)[C@@H](O)[C@@H]1O (stereo not given in full),mCherry,[1],102%
same,percent effect,[2],-0.174%
CCN(CC)CCCC(C)Nc1c2ccc(Cl)cc2nc2ccc(OC)cc12 (stereo not given) [mepacrine],mCherry,[1],56.9%
same,percent effect,[2],-28.3%
COc1cc(NCCCCCNC(C)C)c2ncccc2c1 [pentaquine],mCherry,[1],80.9%
same,percent effect,[2],-0.134%
CO[C@@]1(NC(=O)CSCC#N)C(=O)N2C(C(=O)O)=C(CSc3nnnn3C)CS[C@@H]21 [cefmetazole],mCherry,[1],90.9%
same,percent effect,[2],1.08%
CCCCNc1c(C(=O)OCC)c(C)nc2c1cnn2CC [tracazolate],mCherry,[1],103%
same,percent effect,[2],-0.887%
C[C@H](CCC(=O)O)[C@H]1CC[C@H]2[C@@H]3C(=O)C[C@@H]4CC(=O)CC[C@]4(C)[C@H]3CC(=O)[C@]12C [dehydrocholic acid],mCherry,[1],122%
same,percent effect,[2],-11%
CCCC(CCC)C(=O)O[C@H]1C[C@H]2CC[C@@H](C1)[N+]2(C)C [Anisotropine Methylbromide],mCherry,[1],90.1%
same,percent effect,[2],-0.727%
CC[C@]12CN3CCc4c([nH]c5ccccc45)[C@@](C(=O)OC)(c4cc5c(cc4OC)N(C)[C@H]4[C@@](O)(C(=O)OC)[C@H](OC(C)=O)[C@]6(CC)C=CCN7CC[C@]54[C@@H]76)C[C@@H](C3)[C@H]1O2 [vinleurosine],mCherry,[1],131%
same,percent effect,[2],-3.19%

# Quoted at random: two entries already listed.
smiles,measurement,setting,value
O=C(Nc1ccc(Cl)cc1)Nc1ccc(Cl)c(Cl)c1 [triclocarban],mCherry,[1],35.1%
CO[C@H]1C[C@@H]2CC[C@@H](C)[C@@](O)(O2)C(=O)C(=O)N2CCCC[C@H]2C(=O)O[C@H]([C@H](C)C[C@@H]2CC[C@@H](O)[C@H](OC)C2)CC(=O)[C@H](C)/C=C(\C)[C@@H](O)[C@@H](OC)C(=O)[C@H](C)C[C@H](C)/C=C/C=C/C=C/1C [Sirolimus],mCherry,[1],102%
